Taken from: PubChem BioAssay AID652259 (Drosophila RNAi Screening Center, 2013)
Aim: 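Identify new Wingless signalling regulators in fly cells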 (primary screen). Cell system: Drosophila clone 8 imaginal disc epithelial cells. Reagent: long dsRNA against Drosophila genes. Treatment: pathway stimulated by co-transfected Wingless expression plasmid. Measurement: 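Dual luciferase reads per well after Wingless plasmid stimulation: reporter firefly light and Renilla control light; activity is firefly divided by Renilla, a ratio not deposited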. Scale: firefly reporter light: higher = more Wg reporter light, before normalisation; Renilla control light: higher = more transfected or surviving cells. Call rule: 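a knock-down is a candidate when at least two out of four statistical tests show it departing from its plate mean; one test alone signals a weak candidate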. Meaning of the calls: active = candidate regulator (raises or lowers reporter); inactive = not a candidate.
The screen tested about 22,000 reagents; this is an unselected part of those with a known target gene and a result. In the full data, 233 (1.1%) got an active call. 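Light values are raw, unnormalised plate reads; the ratio scores behind the reporter calls were not deposited.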 Names joined by + are all predicted targets of the reagent. Not stated in the record: the amount of reagent, the time to read-out, the dose of the treatment.

target	dsRNA	reporter change call, replicate 1	firefly reporter light, replicate 1	firefly reporter light, replicate 2	Renilla control light, replicate 1	Renilla control light, replicate 2	call
chinmo	DRSC00292		20544		7872		inactive
chinmo	DRSC00485		7739	13474	1616	3351	inactive
chinmo	DRSC00509		3911	12152	775	1932	inactive
chinmo	DRSC22413		6.42e5	6.85e5	1.37e5	97862	inactive
tamo	DRSC04446		18000		5157		inactive
RpS25	DRSC16837		13064		3747		inactive
CG13243	DRSC01920		4624	9445	1025	2465	inactive
Cys	DRSC16637		9661		3942		inactive
Vsp37A	DRSC18794		21904		11920		inactive
Syn1 + CG7370	DRSC22768		6.19e5	6.11e5	2.96e5	2.58e5	inactive
Ero1L	DRSC08660		5226		2048		inactive
tRNA:Leu-CAA-2-3	DRSC13633		3478		1541		inactive
CG5676	DRSC02875		2192	7387	965	3570	inactive
Golgin97	DRSC06895		17276		5194		inactive
Ada2a + Polr2D	DRSC16206		14408		3638		inactive
Ada2a + Polr2D	DRSC21598		1.32e6	9.69e5	8.17e5	3.45e5	inactive
CG3706	DRSC18649		32992		17968		inactive
CG17145	DRSC10247		16537		2950		inactive
CG8671	DRSC03102		3259	5355	770	2192	inactive
CG8671	DRSC03103		2448	5788	793	2501	inactive
Glut3	DRSC16681		17030		4731		inactive
Chd1	DRSC00745		11085		3633		inactive
Spn38F	DRSC03616		4685	9187	1217	3212	inactive
RpS6	DRSC18712		1728	4250	817	1609	inactive
CG13766	DRSC02271		2253	5520	688	1653	inactive
CheA46a	DRSC05184		15277		6612		inactive
CG3777	DRSC18489		4217		791		inactive
Eaat1	DRSC03321		3209	7058	874	3030	inactive
CG6660	DRSC16087		2648	6761	1395	2512	inactive
CG42523	DRSC00251		19840		11709		inactive
Had1	DRSC20216		18983		7019		inactive
IFT54	DRSC15469		22080		5671		inactive
Sec61beta	DRSC07548	Wg reporter activity lowered	8983		4070		inactive
Sec61beta	DRSC21512		2.94e5	3.75e5	1.26e5	1.15e5	inactive
CPT2	DRSC08553		18679		6473		inactive
eIF2alpha	DRSC20327		3773	6953	1034	717	inactive
Mf	DRSC16120		16848		3210		inactive
robo3	DRSC00374		2284	6003	860	2678	inactive
robo3	DRSC00375		2797	6612	720	1920	inactive
robo3	DRSC00684		2694	10089	1099	3104	inactive
Hakai	DRSC02031		10635		1798		inactive
CG14613	DRSC20625		4176	7436	1513	2391	inactive
CG15711	DRSC06582	Wg reporter activity lowered	6469		1975		inactive
CG18528	DRSC15340		18768		18644		inactive
CG32413	DRSC21591		4.90e5	4.76e5	2.51e5	1.93e5	inactive
CG32198	DRSC09553		3301		1132		inactive
CG8372	DRSC03086		9893		4791		inactive
UBL3	DRSC20298		15256		6093		inactive
Obp83g	DRSC12269		13720		3409		inactive
TkR99D	DRSC16881		9224		2937		inactive
Tl	DRSC16885		2752	6710	1235	2050	inactive
Tim17a1	DRSC14184		18424		5920		inactive
CG10137	DRSC02014		7300		1869		inactive
CG10137	DRSC02015		2601	3920	464	1931	inactive
CG31548	DRSC22640		6.85e5	6.43e5	3.47e5	68	inactive
e(y)2	DRSC19640		17490		8764		inactive
wg	DRSC03636	Wg reporter activity lowered	857	2906	786	3148	active
wdb	DRSC14163		7163		2356		inactive
l(3)72Dr	DRSC10478		6775		3190		inactive
CG43292	DRSC08883		3402		840		inactive
CG43292	DRSC21542		7.48e5	7.58e5	3.58e5	3.23e5	inactive
Scsalpha1	DRSC08698		5810		2698		inactive
CG12782	DRSC04127		2694	7556	586	3386	inactive
Arv1	DRSC11491		3917		2032		inactive
jtb	DRSC06868		4530		1872		inactive
CG43183	DRSC05113		12865		8237		inactive
CG7611	DRSC11840		8981	8.06e5	4620	3.93e5	inactive
S-Lap7	DRSC06374		5782		1753		inactive
Max	DRSC11218		8040		3019		inactive
CG10918	DRSC20472		23911		11893		inactive
CG32299 + CG32298	DRSC07980		2930		1265		inactive
CG32299 + CG32298	DRSC22354		5.12e5	4.70e5	1.75e5	1.54e5	inactive
CG17010	DRSC02559		13975		3772		inactive

Copied from the list.
For “Renilla control light, replicate 1”, CG42523 [DRSC00251] shows 11709
CG15711 [DRSC06582], Renilla control light, replicate 1 → 1975
For “call”, Spn38F [DRSC03616] shows inactive
